Reference: US8008077B2, “Photochemical internalization for delivery of molecules into the cytosol” (priority 2000, dated 2011)

Tested on: THX cells
Assay: Intracellular localisation of FITC-dextran after photochemical treatment, fluorescence microscopy
Type: cell-based, human
Conditions: 20 μg/ml AlPcS2a

Substance: FITC-dextran
- intracellular localisation, illuminated cells (4 min light before 3 h 5 mg/ml FITC-dextran): the cytosol
- intracellular localisation, non-illuminated cells (no light, 3 h 5 mg/ml FITC-dextran): endocytic vesicles
